Drawing on US20070259817A1, this text covers binding for two molecules.

Chains of the proteins cited; added tags and fusions are not shown. Lines headed by an entry give the natural chain unless they say otherwise; changes in a name come on top.
UniProt P02462: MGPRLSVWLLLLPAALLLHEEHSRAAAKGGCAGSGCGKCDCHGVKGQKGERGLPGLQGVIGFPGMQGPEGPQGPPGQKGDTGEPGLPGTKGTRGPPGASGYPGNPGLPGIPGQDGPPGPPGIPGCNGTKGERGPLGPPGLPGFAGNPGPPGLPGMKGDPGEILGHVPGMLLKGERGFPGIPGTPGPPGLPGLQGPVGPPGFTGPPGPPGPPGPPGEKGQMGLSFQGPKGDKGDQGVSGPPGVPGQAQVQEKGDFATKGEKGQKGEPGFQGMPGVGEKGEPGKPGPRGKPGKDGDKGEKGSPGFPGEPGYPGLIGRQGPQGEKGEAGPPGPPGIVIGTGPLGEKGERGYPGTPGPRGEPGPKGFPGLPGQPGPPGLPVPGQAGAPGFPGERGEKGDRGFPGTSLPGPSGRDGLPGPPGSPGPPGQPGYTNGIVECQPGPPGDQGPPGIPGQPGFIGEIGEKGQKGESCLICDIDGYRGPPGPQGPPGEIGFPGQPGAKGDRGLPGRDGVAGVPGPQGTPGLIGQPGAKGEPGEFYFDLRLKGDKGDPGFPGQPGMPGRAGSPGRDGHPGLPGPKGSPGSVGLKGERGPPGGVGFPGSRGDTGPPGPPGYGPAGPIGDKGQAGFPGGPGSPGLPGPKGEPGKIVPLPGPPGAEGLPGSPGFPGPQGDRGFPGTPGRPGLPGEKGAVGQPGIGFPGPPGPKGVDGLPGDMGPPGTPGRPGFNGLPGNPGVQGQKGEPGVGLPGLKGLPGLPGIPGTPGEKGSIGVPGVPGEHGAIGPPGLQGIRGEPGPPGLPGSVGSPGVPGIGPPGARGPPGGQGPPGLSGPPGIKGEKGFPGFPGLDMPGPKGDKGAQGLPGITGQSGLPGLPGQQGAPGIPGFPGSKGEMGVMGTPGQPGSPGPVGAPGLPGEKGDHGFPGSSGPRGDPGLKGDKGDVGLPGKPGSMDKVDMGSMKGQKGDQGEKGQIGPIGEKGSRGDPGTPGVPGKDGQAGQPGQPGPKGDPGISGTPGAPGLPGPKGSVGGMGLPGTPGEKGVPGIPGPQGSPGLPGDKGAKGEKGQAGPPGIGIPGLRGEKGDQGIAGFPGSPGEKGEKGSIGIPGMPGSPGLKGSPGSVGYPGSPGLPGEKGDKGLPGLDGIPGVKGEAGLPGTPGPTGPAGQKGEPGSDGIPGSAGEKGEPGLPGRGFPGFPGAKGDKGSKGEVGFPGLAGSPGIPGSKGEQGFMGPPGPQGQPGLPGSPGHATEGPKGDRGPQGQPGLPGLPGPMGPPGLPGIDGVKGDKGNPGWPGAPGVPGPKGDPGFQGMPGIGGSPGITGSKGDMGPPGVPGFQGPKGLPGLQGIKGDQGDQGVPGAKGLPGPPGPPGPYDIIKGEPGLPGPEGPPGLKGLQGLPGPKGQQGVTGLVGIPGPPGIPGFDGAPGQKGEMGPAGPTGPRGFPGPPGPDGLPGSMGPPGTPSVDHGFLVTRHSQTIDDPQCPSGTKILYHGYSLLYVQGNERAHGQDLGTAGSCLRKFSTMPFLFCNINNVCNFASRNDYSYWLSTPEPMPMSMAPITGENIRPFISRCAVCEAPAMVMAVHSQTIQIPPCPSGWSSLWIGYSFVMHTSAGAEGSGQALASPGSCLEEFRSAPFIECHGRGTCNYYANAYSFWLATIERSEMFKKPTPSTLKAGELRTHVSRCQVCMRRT
UniProt P08572: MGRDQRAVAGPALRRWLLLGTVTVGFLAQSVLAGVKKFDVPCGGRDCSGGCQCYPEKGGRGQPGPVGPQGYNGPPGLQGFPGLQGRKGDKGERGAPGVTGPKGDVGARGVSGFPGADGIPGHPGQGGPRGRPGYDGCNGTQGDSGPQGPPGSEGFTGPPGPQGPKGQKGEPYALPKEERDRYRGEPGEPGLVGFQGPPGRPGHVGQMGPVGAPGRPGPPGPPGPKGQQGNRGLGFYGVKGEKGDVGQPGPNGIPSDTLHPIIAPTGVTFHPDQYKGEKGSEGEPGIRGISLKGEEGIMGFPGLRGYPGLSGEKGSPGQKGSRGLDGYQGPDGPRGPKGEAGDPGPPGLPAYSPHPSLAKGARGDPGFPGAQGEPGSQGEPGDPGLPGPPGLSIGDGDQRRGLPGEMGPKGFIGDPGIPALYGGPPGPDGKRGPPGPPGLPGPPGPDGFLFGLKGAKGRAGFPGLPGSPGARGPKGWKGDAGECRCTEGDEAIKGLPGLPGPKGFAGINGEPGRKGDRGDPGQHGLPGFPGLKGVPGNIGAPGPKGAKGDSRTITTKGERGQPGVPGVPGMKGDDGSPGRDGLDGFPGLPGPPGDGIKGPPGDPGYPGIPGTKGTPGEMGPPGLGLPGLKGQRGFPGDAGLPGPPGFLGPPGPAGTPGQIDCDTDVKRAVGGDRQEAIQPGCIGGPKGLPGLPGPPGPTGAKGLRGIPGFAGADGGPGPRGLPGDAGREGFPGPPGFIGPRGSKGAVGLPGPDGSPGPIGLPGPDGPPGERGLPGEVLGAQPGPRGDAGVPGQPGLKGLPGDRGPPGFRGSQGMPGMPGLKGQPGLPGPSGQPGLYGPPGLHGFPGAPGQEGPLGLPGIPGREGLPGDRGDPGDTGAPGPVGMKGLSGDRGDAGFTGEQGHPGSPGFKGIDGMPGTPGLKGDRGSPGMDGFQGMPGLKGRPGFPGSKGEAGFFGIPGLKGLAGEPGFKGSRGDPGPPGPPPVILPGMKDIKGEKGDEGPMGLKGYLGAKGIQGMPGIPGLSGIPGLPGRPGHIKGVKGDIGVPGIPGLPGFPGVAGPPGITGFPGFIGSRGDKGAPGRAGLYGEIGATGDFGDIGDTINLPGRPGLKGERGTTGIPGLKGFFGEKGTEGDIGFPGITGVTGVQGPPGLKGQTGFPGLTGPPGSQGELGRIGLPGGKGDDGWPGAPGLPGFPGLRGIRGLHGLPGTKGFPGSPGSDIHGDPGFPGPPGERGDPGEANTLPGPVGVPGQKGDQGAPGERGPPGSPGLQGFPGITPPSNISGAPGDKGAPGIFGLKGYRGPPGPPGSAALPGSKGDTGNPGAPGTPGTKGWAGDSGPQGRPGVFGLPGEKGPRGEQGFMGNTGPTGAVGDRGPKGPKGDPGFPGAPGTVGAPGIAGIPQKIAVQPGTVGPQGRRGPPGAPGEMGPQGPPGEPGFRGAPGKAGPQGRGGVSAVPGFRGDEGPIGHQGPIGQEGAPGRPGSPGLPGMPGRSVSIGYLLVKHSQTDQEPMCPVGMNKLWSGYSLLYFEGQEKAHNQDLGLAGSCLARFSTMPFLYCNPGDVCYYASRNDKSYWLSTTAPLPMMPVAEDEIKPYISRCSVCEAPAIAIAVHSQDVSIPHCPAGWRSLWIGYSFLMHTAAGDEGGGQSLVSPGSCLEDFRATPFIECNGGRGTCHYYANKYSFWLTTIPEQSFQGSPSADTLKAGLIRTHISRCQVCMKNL

Assay [1] has as its target T1, denatured collagen type-IV (human) (UniProt P02462+P08572). The assay can be described thus: solid phase ELISA, HRP-labeled CLK-peptide on coated plates; FIG. 15. On the technique in general: An ELISA detects its analyte on a solid surface through an enzyme-linked reagent.
The target in assay [2] is T1, denatured collagen type-IV (human). The assay can be described thus: gamma counting of wells coated with denatured collagen type-IV (10 ug/ml); FIG. 19 legend.
Assay [3] has the same target. The assay can be described thus: gamma counting of wells coated with denatured collagen type-IV (10 ug/ml); FIG. 19.

These are yes or no findings as the source states them, for the method shown. Some binding calls cover weakened binding; strength is not graded here.

Take CLKQNGGNFSLG (HRP label (site of attachment not stated)) [HRP-labeled CLK-Peptide]: the binding result in assay [1] was “binds”.

On to CLKQNGGNFSLG (99Tc label (site and chelation not stated)) [99Tc-CLK-Peptide], for which the binding result in assay [2] and in assay [3] was “binds” throughout.
